# From the supplement of paper PMC10727501
# Structures can show the parent of a compound that is named as a salt. This is one part of the list. Repeats in this data set agree poorly, so a single value says little.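 Free-swimming zebrafish larvae were scored for O-bend response probability to dark flashes (naive: first five; training: remaining flashes of four 60-flash blocks; test: later 60-flash block) and for turning toward alternating leftward/rightward LED motion (OMR). Six treated larvae were compared with sixty 0.1% DMSO controls; |SSMD|≥2 defined a hit.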
# System: Danio rerio larvae (5 dpf, TLF)
# Experiment: Prob-Naive (SSMD vs DMSO vehicle); higher = higher than vehicle (e.g. higher dark-flash O-bend response probability, or better optomotor performance)
# Conditions: 10 µM; pre-incubation: 30-90 min
row,Compound,Prob-Naive
1,Cc1c(C(=O)Nc2ccc(N3CCC(N4CCOCC4)CC3)c(C#N)c2)cnn1-c1ccc(Cl)cc1,-0.0588
2,COc1cc2ncnc(-n3nc(-c4ccccn4)nc3N)c2cc1OC,-0.559
3,CCN(CCO)CCCOc1ccc2c(Nc3cc(CC(=O)Nc4cccc(F)c4)n[nH]3)ncnc2c1 [Barasertib (AZD1152-HQPA)],-0.0643
4,NC(=O)c1cn(Cc2c(F)cccc2F)nn1 [Rufinamide],-0.199
5,O=C(NC[C@H](O)CO)c1ccncc1Nc1ccc(I)cc1F,-0.212
6,S=c1nc[nH]c2nc[nH]c12 [Mercaptopurine (6-MP)],0.459
7,[I-].[K+] [Potassium Iodide],0.0825
8,O=C(/C=C\n1cnc(-c2cc(C(F)(F)F)cc(C(F)(F)F)c2)n1)N1CC(F)(F)C1,-0.785
9,C#C[C@@]1(O)CC[C@H]2[C@@H]3CCc4cc(OC)ccc4[C@@H]3CC[C@@]21C [Mestranol],-0.813
10,[NH2][Pt]([NH2])([Cl])[Cl] [Cisplatin],-0.332
11,CCC(=O)OCC(=O)[C@]1(OC(=O)CC)[C@@H](C)C[C@H]2[C@@H]3CCC4=CC(=O)C=C[C@]4(C)[C@]3(F)[C@H](O)C[C@@]21C [Betamethasone Dipropionate (Diprolene)],-0.0588
12,Cl.c1ccc(CN(CC2=NCCN2)c2ccccc2)cc1 [Antazoline HCl],-0.199
13,CN(C)C(=O)c1ccc(S(=O)(=O)c2ccc(NC(=O)C(C)(O)C(F)(F)F)c(Cl)c2)cc1 (stereo not given),-0.0588
14,c1ccc2c(Oc3nc(Nc4ccc(N5CCOCC5)cc4)c4ncn(C5CCCCC5)c4n3)cccc2c1 [Purmorphamine],-0.526
15,O=C(COc1ccc(C(=O)c2ccccc2)cc1)NC1CCN(Cc2ccccc2)CC1 [AdipoRon],-0.459
16,"C[C@@H](CN1CC(=O)NC(=O)C1)N1CC(=O)NC(=O)C1.Cl [Dexrazoxane HCl (ICRF-187, ADR-529)]",-0.269
17,CCOC(=O)C1=C[C@@]2(CC)CCCN3CCc4c(n1c1ccccc41)[C@@H]32 [Vinpocetine (Cavinton)],-0.0405
18,C[C@H](CCC(=O)O)[C@@H]1CC[C@H]2[C@@H]3C[C@H](O)[C@@H]4C[C@H](O)CC[C@]4(C)[C@@H]3CC[C@@]21C [Hyodeoxycholic acid (HDCA)],0.375
19,C#CCC(Cc1cnc2nc(N)nc(N)c2n1)c1ccc(C(=O)N[C@@H](CCC(=O)O)C(=O)O)cc1 (stereo not given in full) [Pralatrexate],0.0846
20,CNC(=O)c1cc(Oc2ccc(NC(=O)Nc3cc(C(C)(C)C)nn3-c3ccc4ncccc4c3)c(F)c2)ccn1 [DCC-2036 (Rebastinib)],0.102

row,Compound,Prob-Naive
1,CC[C@@H]1OC(=O)[C@H](C)[C@@H](O[C@H]2C[C@@](C)(OC)[C@@H](O)[C@H](C)O2)C(C)[C@@H](O[C@@H]2O[C@H](C)C[C@H](N(C)C)[C@H]2O)[C@](C)(O)C[C@@H](C)CN(C)[C@H](C)[C@@H](O)[C@]1(C)O.O.O (stereo not given in full) [Azithromycin Dihydrate],-0.456
2,OC[C@H]1O[C@@H](Oc2ccc(O)cc2)[C@H](O)[C@@H](O)[C@@H]1O [Arbutin],-0.0225
3,C#Cc1cccc(Nc2ncnc3cc4c(cc23)OCCOCCOCCO4)c1 [Icotinib],-0.304
4,O=C1C(=O)N(Cc2ccc(Cl)c(Cl)c2)c2ccccc21 [Apoptosis Activator 2],0.489
5,Nc1cccc2c1C(=O)N(C1CCC(=O)NC1=O)C2=O (stereo not given) [Pomalidomide],0.454
6,CC(C)NCC(O)c1cc(O)cc(O)c1.CC(C)NCC(O)c1cc(O)cc(O)c1.O=S(=O)(O)O (stereo not given) [Metaproterenol Sulfate],0.0912
7,Cn1cc(-c2cnn3c(N)c(Br)c([C@@H]4CCCNC4)nc23)cn1,0.515
8,COc1ccc2c(c1)c(CC(=O)O)c(C)n2C(=O)c1ccc(Cl)cc1 [Indomethacin],-0.174
9,CN(C)CC(c1ccc(O)cc1)C1(O)CCCCC1.O=C(O)CCC(=O)O (stereo not given) [Desvenlafaxine Succinate],-0.0948
10,Cc1cc(NC(=O)Nc2ccc(N(C)C)cc2)c2cc(F)cc(F)c2n1,-0.146
11,O=C([O-])C[C@H](O)C[C@H](O)C=Cc1c(C2CC2)nc2ccccc2c1-c1ccc(F)cc1.O=C([O-])C[C@H](O)C[C@H](O)C=Cc1c(C2CC2)nc2ccccc2c1-c1ccc(F)cc1.[Ca+2] [Pitavastatin Calcium],-0.0365
12,Oc1c(Cl)cc(Cl)c2cccnc12 [Chloroxine],-1.59
13,CN1CCN(c2c(F)cc3c(=O)c(C(=O)O)cn4c3c2OCN4C)CC1 [Marbofloxacin],0.0252
14,CCN1CCCC1CNC(=O)c1cc(S(=O)(=O)CC)c(N)cc1OC (stereo not given) [Amisulpride],0.129
15,Cc1c(-c2ccc(O)cc2)n(Cc2ccc(OCCN3CCCCCC3)cc2)c2ccc(O)cc12.Cl [Bazedoxifene HCl],-0.584
16,Cc1cnc(Nc2ccc(N3CCN(C)CC3)cc2)nc1Nc1cccc(S(=O)(=O)NC(C)(C)C)c1,-0.06
17,CCN(CC)CCOC(=O)C1(C2CCCCC2)CCCCC1 [Dicyclomine HCl],0.298
18,OC[C@@H](O)[C@@H](O)CO [Erythritol],-0.252
19,CC(C)CC(N)=O [Isovaleramide],0.585
20,C#Cc1cccc(Nc2ncnc3cc(OCCOC)c(OCCOC)cc23)c1 [Erlotinib HCl (OSI-744)],-0.128

# Among those listed so far, these have an NH in an aromatic ring.
row,Compound,Prob-Naive
3,CCN(CCO)CCCOc1ccc2c(Nc3cc(CC(=O)Nc4cccc(F)c4)n[nH]3)ncnc2c1 [Barasertib (AZD1152-HQPA)],-0.0643
6,S=c1nc[nH]c2nc[nH]c12 [Mercaptopurine (6-MP)],0.459
